Structures can show the parent of a compound that is named as a salt. The list shows a part of the results. Single values are uncertain, as repeats are few or missing.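 Three clinical Candida auris isolates (clades III, IV and I) from the CDC resistance isolate bank were grown in RPMI-1640 at 35°C. Growth was background-corrected OD600 relative to same-plate vehicle-only wells. Hits required over 50% inhibition in at least two strains and a plate-corrected B-score above 0.1.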
Assays:
Assay in all cases: growth relative to vehicle control (OD600 ratio) (fraction); higher = less inhibition
Settings in all cases: 24 h
C. auris AR-384 = tested on: C. auris AR-384
C. auris AR-386 = tested on: C. auris AR-386
C. auris AR-387 = tested on: C. auris AR-387

SMILES	growth (C. auris AR-384; 1 µM)	growth (C. auris AR-384; 10 µM)	growth (C. auris AR-386; 1 µM)	growth (C. auris AR-386; 10 µM)	growth (C. auris AR-387; 1 µM)	growth (C. auris AR-387; 10 µM)
CC[C@H](CO)Nc1nc(NCc2ccccc2)c2ncn(C(C)C)c2n1 [Roscovitine (Seliciclib,CYC202)]	1.03	0.98	0.93	0.53	0.74	0.73
CN(C)CC(c1ccc(O)cc1)C1(O)CCCCC1 (centres undefined) [Desvenlafaxine]	0.94	0.77	0.81	0.72	0.71	0.82
Clc1ccc(C(Cn2ccnc2)OCc2ccsc2Cl)c(Cl)c1 (centres undefined) [Tioconazole]	0.41	0.19	0.75	0.47	0.07	0.04
CN1C(C(=O)Nc2ccccn2)=C(O)c2sccc2S1(=O)=O [Tenoxicam]	0.87	0.85	0.66	0.84	0.7	0.67
CCOC(=O)N1c2ccc(C(F)(F)F)cc2[C@@H](N(Cc2cc(C(F)(F)F)cc(C(F)(F)F)c2)C(=O)OC)C[C@H]1CC [Torcetrapib]	0.66	0.88	0.77	0.67	0.62	0.63
CCN[C@@H]1C[C@H](N)[C@@H](O[C@H]2OC(CN)=CC[C@H]2N)[C@H](O)[C@H]1O[C@H]1OC[C@](C)(O)[C@H](NC)[C@H]1O [Netilmicin Sulfate]	0.58	0.72	0.87	0.95	0.65	0.85
COC1=C(OC)C(=O)C(CCCCCCCCCCO)=C(C)C1=O [Idebenone]	0.95	0.88	1.05	1.01	1.15	0.9
Cc1cn([C@H]2O[C@@H](CO)[C@H](O)[C@H]2F)c(=O)[nH]c1=O [Clevudine]	0.88	0.74	0.79	0.64	0.75	0.48
CCNC(=O)CCC/C=C\C[C@@H]1[C@@H](/C=C/[C@@H](O)CCc2ccccc2)[C@H](O)C[C@@H]1O [Bimatoprost]	0.77	0.9	0.79	0.56	0.79	0.89
CC(C)(CO)[C@@H](O)C(=O)NCCCO [D-Panthenol]	0.9	0.88	1.01	1.06	0.69	0.97
Clc1ccc(CCC(Cn2ccnc2)Sc2c(Cl)cccc2Cl)cc1 (centres undefined) [Butoconazole nitrate]	0.38	0.08	0.16	0	0.03	0.02
COc1cc2c(Oc3ccc4[nH]c(C)cc4c3F)ncnc2cc1OCCCN1CCCC1 [Cediranib (AZD2171)]	0.77	0.55	0.66	1.02	0.81	0.86
COc1cc(Cc2cnc(N)nc2N)cc(OC)c1OC [Trimethoprim]	0.96	1.01	0.93	0.93	0.98	0.7
Cc1nccn1CC1CCc2c(c3ccccc3n2C)C1=O (centres undefined) [Ondansetron Hydrochloride Dihydrate]	1.22	1.37	1.37	1.29	1.24	1.22
NCCS [Cysteamine HCl]	1.21	1.26	1.16	1.16	1.14	1.08
COc1ccc(C(Cl)=C(c2ccc(OC)cc2)c2ccc(OC)cc2)cc1 [Chlorotrianisene]	0.84	0.91	0.89	1.06	0.64	0.8
C[C@H](Cn1cnc2c(N)ncnc21)OCP(=O)(O)O [Tenofovir]	0.84	0.99	1.03	1.03	0.95	0.78
Nc1nc2[nH]cnc2c(=S)[nH]1 [Thioguanine]	0.98	0.79	0.74	0.7	0.62	0.64
CN1CCN2c3ccccc3Cc3ccccc3C2C1 (centres undefined) [Mianserin HCl]	0.86	1.27	1.09	0.54	0.84	0.7
C#C[C@]1(O)CC[C@H]2[C@@H]3CCC4=CC(=O)CC[C@@H]4[C@H]3CC[C@@]21C [Norethindrone]	0.89	0.85	0.67	0.78	0.77	0.94
CCN(CC)CC#CCOC(=O)C(O)(c1ccccc1)C1CCCCC1 (centres undefined) [Oxybutynin chloride]	0.81	0.85	0.67	0.84	0.77	0.8
CC(/C=C1\SC(=S)N(CC(=O)O)C1=O)=C\c1ccccc1 [Epalrestat]	1.03	0.84	1.33	1.11	1.06	1.11
C(=C\c1ccccc1)/CN1CCN(C(c2ccccc2)c2ccccc2)CC1 [Cinnarizine]	1	0.77	0.77	0.71	0.6	0.84
Nc1ccc(S(=O)(=O)c2ccc(N)cc2)cc1 [Dapson]	0.91	0.93	1.08	1.06	1.02	1.08
Cc1cc(=O)n(-c2ccccc2)n1C [Antipyrine]	1.11	0.85	0.66	0.93	0.77	0.88
CCN(CC)CCNC(=O)c1c(C)[nH]c(/C=C2\C(=O)Nc3ccc(F)cc32)c1C [Sunitinib]	0.82	0.62	0.55	0.73	0.74	0.77
CNC[C@H](O)[C@@H](O)[C@H](O)[C@H](O)CO [Meglumine]	0.83	0.74	0.67	0.59	0.76	0.52
CCC1(C)CC(=O)NC1=O (centres undefined) [Ethosuximide]	0.92	0.86	0.99	0.9	1.02	0.91
COc1cnc(NS(=O)(=O)c2ccc(N)cc2)nc1 [Sulfameter]	0.73	1.45	1.36	0.81	0.89	0.86

By substructure, the entries above containing a thiophene ring, fused or not.
SMILES	growth (C. auris AR-384; 1 µM)	growth (C. auris AR-384; 10 µM)	growth (C. auris AR-386; 1 µM)	growth (C. auris AR-386; 10 µM)	growth (C. auris AR-387; 1 µM)	growth (C. auris AR-387; 10 µM)
Clc1ccc(C(Cn2ccnc2)OCc2ccsc2Cl)c(Cl)c1 (centres undefined) [Tioconazole]	0.41	0.19	0.75	0.47	0.07	0.04
CN1C(C(=O)Nc2ccccn2)=C(O)c2sccc2S1(=O)=O [Tenoxicam]	0.87	0.85	0.66	0.84	0.7	0.67

— the supplement of paper PMC10470496
